Patent US20160331708A1 (priority 2014, published 2016)

Tested on: Bacillus subtilis 168
Assay: Antibiotic MIC tests in microtiter plates
Settings: antibiotic against B. subtilis in the presence of anthranilic acid (2.2 mM)

CC1=C(C(=O)O)N2C(=O)[C@@H](NC(=O)[C@H](N)c3ccccc3)[C@H]2SC1 [Cephalexin (1H2O), Cephalexin]
MIC with anthranilic acid (2.2 mM): 0.061 µg/mL
